Measurements reported in PMC11442470.
Results are given in words; binding and its absence hold for the method and conditions named. For part of these data: In cells and extracts the contact can be indirect. Some results given as binding are weak or reduced against the parent protein; the word gives no strength. Where a sequence is shown, tags or fusion partners need not be part of it.

Amino acid sequences for entries named in this document (tags omitted). A change or cut given only in a name is not applied to a line headed by its entry. Chains listed by the source or under a name are the forms on record and can include a tag or linker. Residues count along the entry.
UniProt D3Z7P3, residues 55-674: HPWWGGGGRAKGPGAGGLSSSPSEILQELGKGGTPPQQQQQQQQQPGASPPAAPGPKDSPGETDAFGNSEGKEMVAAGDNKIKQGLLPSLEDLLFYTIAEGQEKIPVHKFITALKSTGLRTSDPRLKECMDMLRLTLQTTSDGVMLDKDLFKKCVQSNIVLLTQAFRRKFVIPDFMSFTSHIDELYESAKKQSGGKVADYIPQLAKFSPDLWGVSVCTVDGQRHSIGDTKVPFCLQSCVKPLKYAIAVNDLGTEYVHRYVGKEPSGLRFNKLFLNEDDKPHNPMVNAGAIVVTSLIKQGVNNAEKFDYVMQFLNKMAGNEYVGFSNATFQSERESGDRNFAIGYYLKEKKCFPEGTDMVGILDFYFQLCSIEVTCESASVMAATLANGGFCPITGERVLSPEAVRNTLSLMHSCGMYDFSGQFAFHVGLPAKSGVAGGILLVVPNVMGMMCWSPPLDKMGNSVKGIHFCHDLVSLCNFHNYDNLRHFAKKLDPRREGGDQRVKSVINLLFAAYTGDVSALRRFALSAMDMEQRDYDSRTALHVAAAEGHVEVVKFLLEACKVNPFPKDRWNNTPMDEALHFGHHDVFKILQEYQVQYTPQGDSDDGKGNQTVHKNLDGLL
recombinant His-tagged KGA isozyme of GLS1 (O94925, residues 55-669): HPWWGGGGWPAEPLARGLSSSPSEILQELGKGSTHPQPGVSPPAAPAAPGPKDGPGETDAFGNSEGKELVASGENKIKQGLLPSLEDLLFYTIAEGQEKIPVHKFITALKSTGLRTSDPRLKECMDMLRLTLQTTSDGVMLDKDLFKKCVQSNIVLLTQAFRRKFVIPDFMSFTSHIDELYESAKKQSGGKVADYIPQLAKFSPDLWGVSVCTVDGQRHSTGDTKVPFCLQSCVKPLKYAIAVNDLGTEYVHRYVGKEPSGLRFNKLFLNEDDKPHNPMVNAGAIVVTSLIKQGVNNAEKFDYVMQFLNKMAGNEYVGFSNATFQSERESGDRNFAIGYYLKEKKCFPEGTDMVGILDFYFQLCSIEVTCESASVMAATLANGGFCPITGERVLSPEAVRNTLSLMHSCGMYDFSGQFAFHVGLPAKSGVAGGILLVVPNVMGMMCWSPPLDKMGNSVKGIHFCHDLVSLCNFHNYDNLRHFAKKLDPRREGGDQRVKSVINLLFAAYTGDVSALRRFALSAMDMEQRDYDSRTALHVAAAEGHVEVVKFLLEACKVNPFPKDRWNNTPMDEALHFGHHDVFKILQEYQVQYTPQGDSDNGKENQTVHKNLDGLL
recombinant His-tagged GAC isozyme of GLS1 (O94925-3, form named): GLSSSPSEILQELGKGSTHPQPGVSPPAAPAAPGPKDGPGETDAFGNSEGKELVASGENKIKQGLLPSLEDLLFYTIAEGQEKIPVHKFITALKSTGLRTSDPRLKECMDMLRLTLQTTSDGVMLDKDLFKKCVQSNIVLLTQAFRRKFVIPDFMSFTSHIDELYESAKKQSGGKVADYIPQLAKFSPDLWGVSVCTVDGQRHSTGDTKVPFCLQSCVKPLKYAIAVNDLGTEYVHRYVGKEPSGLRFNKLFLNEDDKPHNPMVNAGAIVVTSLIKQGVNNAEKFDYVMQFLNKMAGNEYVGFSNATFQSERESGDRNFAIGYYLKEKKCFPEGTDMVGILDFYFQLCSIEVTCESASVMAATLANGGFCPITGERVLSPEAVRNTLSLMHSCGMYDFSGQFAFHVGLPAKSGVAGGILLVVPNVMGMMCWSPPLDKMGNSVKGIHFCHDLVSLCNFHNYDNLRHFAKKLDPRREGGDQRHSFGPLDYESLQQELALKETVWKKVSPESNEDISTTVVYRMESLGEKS

T1: GST-tagged recombinant PDZD8, not phosphorylated (human) (UniProt Q8NEN9)
T1 sequence: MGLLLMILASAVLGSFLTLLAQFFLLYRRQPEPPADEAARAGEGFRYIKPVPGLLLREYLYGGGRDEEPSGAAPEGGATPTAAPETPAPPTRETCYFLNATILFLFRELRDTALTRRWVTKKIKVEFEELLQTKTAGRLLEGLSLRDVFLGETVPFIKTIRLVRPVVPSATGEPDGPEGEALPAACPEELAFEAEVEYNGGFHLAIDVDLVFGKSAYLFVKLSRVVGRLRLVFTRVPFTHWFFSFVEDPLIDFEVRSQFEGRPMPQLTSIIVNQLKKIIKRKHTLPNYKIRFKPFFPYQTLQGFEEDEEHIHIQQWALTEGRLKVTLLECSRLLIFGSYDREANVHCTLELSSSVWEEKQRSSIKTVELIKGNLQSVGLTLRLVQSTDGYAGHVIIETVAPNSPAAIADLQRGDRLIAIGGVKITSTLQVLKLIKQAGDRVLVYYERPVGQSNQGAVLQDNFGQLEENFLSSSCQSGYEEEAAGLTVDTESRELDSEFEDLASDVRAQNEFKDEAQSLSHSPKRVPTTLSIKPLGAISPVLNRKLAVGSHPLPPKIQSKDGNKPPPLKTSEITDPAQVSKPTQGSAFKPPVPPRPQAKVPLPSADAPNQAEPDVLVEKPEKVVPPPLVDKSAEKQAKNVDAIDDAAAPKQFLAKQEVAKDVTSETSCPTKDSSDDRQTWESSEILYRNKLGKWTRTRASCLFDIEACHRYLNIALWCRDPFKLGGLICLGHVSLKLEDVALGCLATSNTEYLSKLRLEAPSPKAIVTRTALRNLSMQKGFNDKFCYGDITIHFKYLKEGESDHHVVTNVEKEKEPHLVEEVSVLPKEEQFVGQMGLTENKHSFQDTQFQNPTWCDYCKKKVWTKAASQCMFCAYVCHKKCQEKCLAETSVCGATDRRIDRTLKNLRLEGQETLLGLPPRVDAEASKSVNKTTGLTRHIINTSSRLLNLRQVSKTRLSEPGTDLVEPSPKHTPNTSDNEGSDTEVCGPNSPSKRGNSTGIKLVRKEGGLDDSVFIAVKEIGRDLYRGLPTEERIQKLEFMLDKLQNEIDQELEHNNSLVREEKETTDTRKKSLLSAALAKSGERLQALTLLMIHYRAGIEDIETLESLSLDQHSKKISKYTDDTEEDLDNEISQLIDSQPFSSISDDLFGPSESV

T2: GST-tagged recombinant PDZD8-T527A, pre-incubated with AMPK (human) (UniProt Q8NEN9)
T2 sequence: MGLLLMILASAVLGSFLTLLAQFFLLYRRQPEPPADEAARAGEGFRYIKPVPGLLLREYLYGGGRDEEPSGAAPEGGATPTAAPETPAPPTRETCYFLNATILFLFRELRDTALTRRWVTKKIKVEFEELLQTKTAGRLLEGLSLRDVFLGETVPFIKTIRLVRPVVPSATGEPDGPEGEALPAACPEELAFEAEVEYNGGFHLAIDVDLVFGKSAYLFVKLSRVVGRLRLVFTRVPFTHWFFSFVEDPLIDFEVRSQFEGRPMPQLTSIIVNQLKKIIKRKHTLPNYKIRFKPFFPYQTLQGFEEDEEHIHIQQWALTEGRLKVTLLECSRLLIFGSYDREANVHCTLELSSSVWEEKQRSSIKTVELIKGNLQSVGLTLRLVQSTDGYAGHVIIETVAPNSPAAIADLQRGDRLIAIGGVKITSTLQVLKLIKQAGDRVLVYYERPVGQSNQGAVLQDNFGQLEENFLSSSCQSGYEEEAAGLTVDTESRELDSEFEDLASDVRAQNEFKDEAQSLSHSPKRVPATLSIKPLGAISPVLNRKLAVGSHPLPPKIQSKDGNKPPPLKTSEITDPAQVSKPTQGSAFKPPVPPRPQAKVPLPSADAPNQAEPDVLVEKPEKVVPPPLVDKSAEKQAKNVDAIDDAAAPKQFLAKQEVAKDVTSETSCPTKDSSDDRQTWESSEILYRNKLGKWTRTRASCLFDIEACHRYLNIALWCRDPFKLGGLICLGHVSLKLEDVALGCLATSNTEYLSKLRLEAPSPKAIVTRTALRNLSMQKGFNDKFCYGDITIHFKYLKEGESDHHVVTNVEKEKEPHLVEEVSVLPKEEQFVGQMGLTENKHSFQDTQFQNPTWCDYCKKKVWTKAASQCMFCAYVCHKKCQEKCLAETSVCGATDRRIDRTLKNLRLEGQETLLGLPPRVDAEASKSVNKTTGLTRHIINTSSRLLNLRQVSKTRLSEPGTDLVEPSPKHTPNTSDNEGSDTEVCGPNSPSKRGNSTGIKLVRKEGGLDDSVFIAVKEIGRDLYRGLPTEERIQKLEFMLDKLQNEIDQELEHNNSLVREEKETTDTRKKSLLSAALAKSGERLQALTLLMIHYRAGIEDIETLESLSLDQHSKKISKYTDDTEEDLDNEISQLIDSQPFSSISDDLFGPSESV

T3: GST-tagged recombinant PDZD8 phosphorylated by AMPK in vitro (human) (UniProt Q8NEN9)
T3 sequence (chain, phosphothreonine at 527 (phosphorylated by AMPK in vitro)): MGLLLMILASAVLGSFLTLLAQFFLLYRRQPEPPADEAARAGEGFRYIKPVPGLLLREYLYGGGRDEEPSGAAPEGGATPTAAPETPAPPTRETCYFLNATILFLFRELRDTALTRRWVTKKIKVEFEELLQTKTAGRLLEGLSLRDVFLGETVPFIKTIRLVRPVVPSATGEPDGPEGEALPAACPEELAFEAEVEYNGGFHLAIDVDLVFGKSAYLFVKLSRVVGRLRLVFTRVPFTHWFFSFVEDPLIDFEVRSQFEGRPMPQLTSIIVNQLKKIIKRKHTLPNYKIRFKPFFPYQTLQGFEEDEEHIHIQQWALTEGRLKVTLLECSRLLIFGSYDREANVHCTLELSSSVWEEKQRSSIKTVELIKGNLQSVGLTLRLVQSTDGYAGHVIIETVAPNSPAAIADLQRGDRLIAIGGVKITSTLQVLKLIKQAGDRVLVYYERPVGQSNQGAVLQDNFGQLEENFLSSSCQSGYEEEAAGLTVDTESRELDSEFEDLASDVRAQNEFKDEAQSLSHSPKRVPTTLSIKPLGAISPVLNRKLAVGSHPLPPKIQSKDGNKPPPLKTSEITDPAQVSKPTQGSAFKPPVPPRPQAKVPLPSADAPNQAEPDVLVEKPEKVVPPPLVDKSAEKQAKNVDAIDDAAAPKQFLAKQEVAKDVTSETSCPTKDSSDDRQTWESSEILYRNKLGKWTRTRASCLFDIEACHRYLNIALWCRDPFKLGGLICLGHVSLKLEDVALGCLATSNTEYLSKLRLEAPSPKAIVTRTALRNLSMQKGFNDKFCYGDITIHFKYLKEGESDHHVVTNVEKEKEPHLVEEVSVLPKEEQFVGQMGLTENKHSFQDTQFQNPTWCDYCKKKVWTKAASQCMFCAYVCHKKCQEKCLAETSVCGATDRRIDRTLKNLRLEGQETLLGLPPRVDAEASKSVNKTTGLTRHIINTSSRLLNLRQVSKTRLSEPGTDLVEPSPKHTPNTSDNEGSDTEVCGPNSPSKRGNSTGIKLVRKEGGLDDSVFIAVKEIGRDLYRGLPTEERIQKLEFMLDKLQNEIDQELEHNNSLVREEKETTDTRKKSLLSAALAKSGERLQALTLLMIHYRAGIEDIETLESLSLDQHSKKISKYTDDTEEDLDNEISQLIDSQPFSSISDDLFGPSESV


Legend:
[1] = target: T1, GST-tagged recombinant PDZD8, not phosphorylated (human); experiment: pull-down; recombinant His-tagged KGA or GAC mixed with recombinant GST-tagged PDZD8 or PDZD8-T527A that was pre-incubated with AMPK pre-phosphorylated with CaMKK2; GST tag pulled down, immunoblotting; both purified
[2] = target: T2, GST-tagged recombinant PDZD8-T527A, pre-incubated with AMPK (human); experiment: as above
[3] = target: T3, GST-tagged recombinant PDZD8 phosphorylated by AMPK in vitro (human); experiment: as above
[4] = target: glutaminase 1 (GLS1; both KGA and GAC), endogenous in MEFs (mouse (endogenous in MEFs)) (UniProt D3Z7P3); experiment: proximity ligation; Duolink PLA in fixed MEFs expressing HA-tagged PDZD8 or its mutant, mouse anti-HA and rabbit anti-GLS1; cells unstarved or glucose-starved for 2 h; WT, AMPKα-/- and PDZD8-/- MEFs
[5] = target: glutaminase 1 (GLS1; both KGA and GAC), endogenous in MEFs (mouse (endogenous in MEFs)) (UniProt D3Z7P3); experiment: co-IP; endogenous GLS1 (KGA and GAC) immunoprecipitated from MEF lysates in DDM/CHS lysis buffer (20 mM HEPES pH 7.4, 50 mM NaCl, 10 mM MgCl2, 0.5% DDM, 0.1% CHS), blot for co-precipitated PDZD8; cells unstarved or glucose-starved for 2 h; WT, AMPKα-/- and PDZD8-/- MEFs, the last with WT PDZD8 or PDZD8-T527A re-introduced

binding [1] | binding [2] | binding [3] | binding [4] | binding [5] | Molecule
binds | binds | binds |  |  | recombinant His-tagged KGA isozyme of GLS1 (from UniProt O94925 55-669) (enzyme)
binds | binds | binds |  |  | recombinant His-tagged GAC isozyme of GLS1 (from UniProt O94925-3 71-598) (enzyme)
 |  |  | binds | binds | HA-tagged PDZD8, stably expressed in MEFs (protein, UniProt Q8NEN9 1-1154) MGLLLMILASAVLGSFLTLLAQFFLLYRRQPEPPADEAARAGEGFRYIKPVPGLLLREYLYGGGRDEEPSGAAPEGGATPTAAPETPAPPTRETCYFLNATILFLFRELRDTALTRRWVTKKIKVEFEELLQTKTAGRLLEGLSLRDVFLGETVPFIKTIRLVRPVVPSATGEPDGPEGEALPAACPEELAFEAEVEYNGGFHLAIDVDLVFGKSAYLFVKLSRVVGRLRLVFTRVPFTHWFFSFVEDPLIDFEVRSQFEGRPMPQLTSIIVNQLKKIIKRKHTLPNYKIRFKPFFPYQTLQGFEEDEEHIHIQQWALTEGRLKVTLLECSRLLIFGSYDREANVHCTLELSSSVWEEKQRSSIKTVELIKGNLQSVGLTLRLVQSTDGYAGHVIIETVAPNSPAAIADLQRGDRLIAIGGVKITSTLQVLKLIKQAGDRVLVYYERPVGQSNQGAVLQDNFGQLEENFLSSSCQSGYEEEAAGLTVDTESRELDSEFEDLASDVRAQNEFKDEAQSLSHSPKRVPTTLSIKPLGAISPVLNRKLAVGSHPLPPKIQSKDGNKPPPLKTSEITDPAQVSKPTQGSAFKPPVPPRPQAKVPLPSADAPNQAEPDVLVEKPEKVVPPPLVDKSAEKQAKNVDAIDDAAAPKQFLAKQEVAKDVTSETSCPTKDSSDDRQTWESSEILYRNKLGKWTRTRASCLFDIEACHRYLNIALWCRDPFKLGGLICLGHVSLKLEDVALGCLATSNTEYLSKLRLEAPSPKAIVTRTALRNLSMQKGFNDKFCYGDITIHFKYLKEGESDHHVVTNVEKEKEPHLVEEVSVLPKEEQFVGQMGLTENKHSFQDTQFQNPTWCDYCKKKVWTKAASQCMFCAYVCHKKCQEKCLAETSVCGATDRRIDRTLKNLRLEGQETLLGLPPRVDAEASKSVNKTTGLTRHIINTSSRLLNLRQVSKTRLSEPGTDLVEPSPKHTPNTSDNEGSDTEVCGPNSPSKRGNSTGIKLVRKEGGLDDSVFIAVKEIGRDLYRGLPTEERIQKLEFMLDKLQNEIDQELEHNNSLVREEKETTDTRKKSLLSAALAKSGERLQALTLLMIHYRAGIEDIETLESLSLDQHSKKISKYTDDTEEDLDNEISQLIDSQPFSSISDDLFGPSESV
 |  |  |  | binds | PDZ domain containing 8 (PDZD8), endogenous in MEFs (protein, UniProt B9EJ80 1-1147) MGLLLLILASAVLGSFLTLLAQFLLLYRRQPEPRADEAARAGDGFRYLKPVPGLPLREYLYGGGAEELAACSSEAGASSTPTPDSPAPPTLETCYFLNATILFLFRELRDTALARRWVTKKIKVEFEELLQTKTAGRLLEGLSLRDVFLGDTVPFIKTIRLVRPVVASGTGEPDDPDGDALPATCPEELAFEAEVEYNGGFHLAIDVDLVFGKSAYLFVKLSRVVGRLRFVLTRVPFTHWFFSFVEDPLIDFEVRSQFEGRPMPQLTSIIVNQLKKIIKRKHTLPSYKIRFKPFFPYQALQGFEEDEELIHIQQWALTEGRLKVTLLECSRLFIFGSYDRETNVHCTLELSSGVWEEKQRSSIKTVELIKGNLQSVGLTLRLVQSTDGYAGHVIIETVAPNSPAAMADLQRGDRLIAIGGVKITSTLQVLKLIKQAGDRVLVYYQRPAGQSSQDSLGQLEESFLSSSCQAAYEEDAAGLSADTENRDLDSEFEDLASDVRVQTELKEETQPLSHSPKRTPTTLSIKPLGAISPVLNRKLISGIHPPPQKLPSKEGNKPSTLKTSETTEAAQVSKPQGPTFKPPVPPRPQGRVPLPPTDTSAQADPEAPEKPDKVLLPPPPADKPAEKQVKSVDQGEDVAAGKQSSAKQEGVKDLPSESSAPTKDSSDDPQMWESSEVLYRNKVGKWSRTRASCVFDIEACHRYLNIALWCRDPFKLGGLICLGHVSLKLEEVALGCLATSNMEYLTKFRLEPPTPKAMVTRTALRNLSMQKGFNDKFCFGDITIHFKYLKEGEPDHHIVPNVEKEKELHLVEEVSTLPKEEHFVGQMSLSENKHSFQDTQFQNPTWCDYCKKKVWTKAASQCMFCAYVCHKKCQEKCLAETPLCGATERRIDRTLKNLRLEGQDPLLGLPPRVEIEANKSVNKTTGLTRHIINTSSRLLNLRQVSKTRLSEPGTDLVEPSPKHTPNTSDNEGSDTEVCGSNSPSKRGNSAGIKLMRKEGGLDDSVFIAVKEIGRDLYRGLPTEERIQKLEFMLDKLQNEIDQELEHNNSLVREEKETNDTRKKSVLSAALAKSGERLQALTLLMIHYRAGIEDIETLENLSLDQHSKKMNKYADDTEEDLDSEISQLIDSQPFSNISDDLFGPSESV
